“Also recorded” adds a separate entry of the source.
Tested on: formalin-injected mice
Experiment: Formalin-induced chronic pain-like state (CPLS): persistent hypersensitivity to heat and mechanical stimuli
Format: in vivo, mouse
Details: maximally effective dosages on PFD2-4: gabapentin 50 mg-kg^−1 IP, morphine 10 mg-kg^−1 subcutaneous, ketamine 4 mg-kg^−1 IP, ketoprofen 100 mg-kg^−1 IP, WT mice

With `CN1CC[C@]23c4c5ccc(O)c4O[C@H]2[C@@H](O)C=C[C@H]3[C@H]1C5` [morphine] the “conversion to CPLS (contralateral hyperalgesia, PFD14)” value was “not mimicked; also recorded: failed to stop; also recorded: do not prevent; also recorded: fail to prevent”.

Source: patent publication US20240252486A1, “ALGOSTATIC AGENTS FOR PREVENTING TRANSITION FROM ACUTE TO CHRONIC PAIN” (The Regents of the University of California, priority 2021, published 2024)
